# Results as given in patent publication US20200268804A1, “METHODS AND COMPOSITIONS TO MAINTAIN STEM CELL QUIESCENCE” (The Board of Trustees of the Leland Stanford Junior …, priority 2016, published 2020).
# For at least one compound, name, drawing or mass did not settle the structure.
# Tested on: quiescent MuSCs
# Experiment: Q-RT-PCR screening of candidate molecules for promotion of MuSC quiescence
# Assay type: cell-based, mouse
# Conditions: 500 quiescent MuSCs cultured 2.5 days with the molecule; gene expression signature
# Excerpt: FIG. 8. Screening of molecules titrated at different concentrations. Heat map analysis of gene expression profiles obtained from MuSCs cultured in different concentrations of candidate molecules. In 96 well plates, 500 MuSCs were directly isolated by FACS and cultured in the presence of the candidate molecules titrated at different concentrations. After 2.5 days, cells were collected for combinatorial Q-RT-PCR to screen for the conditions that result mostly closely resemble freshly isolated MuSCs based on the gene expression profiles. A heat map for absolute deviations from expression levels of freshly isolated quiescent MuSCs (QSC) is shown. On the X axis, the molecules tested and the different dilutions employed from the working concentrations are indicated as in FIG. 16. On the Y axis the names of the genes that were tested are listed. The gene names were organized in general functional groups. Each functional group is based on the main function and role in MuSCs.
# Knowing that quiescent MuSCs have a unique transcriptional signature, we employed combinatorial QRT-PCR to screen for molecules that, when added to the medium, would promote MuSC quiescence. […]
# Single Cell Q-RT-PCR. […] Biomark data was analyzed using Q-RT-PCR Analysis software (Fluidigm). […] For each amplicon, a limit of detection (LOD) was determined by running 10-fold serial dilutions of embryonic cDNA in 6 replicates. […]
structure (smiles),measurement,value
C[C@H](N)C(=O)NCC(=O)N[C@H]1CSSC[C@@H](C(=O)O)NC(=O)[C@H](CO)NC(=O)[C@H]([C@@H](C)O)NC(=O)[C@H](Cc2ccccc2)NC(=O)[C@H]([C@@H](C)O)NC(=O)[C@H](CCCCN)NC(=O)[C@H](Cc2c[nH]c3ccccc23)NC(=O)[C@H](Cc2ccccc2)NC(=O)[C@H](Cc2ccccc2)NC(=O)[C@H](CC(N)=O)NC(=O)[C@H](CCCCN)NC1=O [Somatostatin],quiescence-promoting activity,novel quiescence-promoting activity
